At least one compound was matched to its structure with a doubt left.
Target: AANAT (Ovis aries, UniProt Q29495)
Test: Tryptamine analogs as AANAT substrates, steady-state kinetic parameters
Conditions: for kcat: Table 1, tryptamine analogs
Description: Expression of eukaryotic proteins in bacteria is unpredictable.
The enzymatic assays available for AANAT were direct, radioactive assays. […] Thus indirect methods to measure CoASH formation were tested.
The first objective of these studies was to determine the tolerance of alkyl chain length for substrate processing efficiency. […] Indole-propylamine (7.1) and indole-butylamines(7.2) are not commercially available and were prepared as shown (FIG. 7) (6l).
Another important selectivity issue was addressing the effects of a-methyl and Nw-methyl-substitutions of tryptamine analogs (FIG. 8) on AANAT catalysis. […] These compounds were obtained from commercial sources and tested as AANAT substrates. […] Using these compounds.

By UniProt entry, the sequences of proteins in these tests, tags left out. Where a name states a change or a piece, a line headed by the entry shows the natural chain unless it says otherwise.
UniProt Q29495: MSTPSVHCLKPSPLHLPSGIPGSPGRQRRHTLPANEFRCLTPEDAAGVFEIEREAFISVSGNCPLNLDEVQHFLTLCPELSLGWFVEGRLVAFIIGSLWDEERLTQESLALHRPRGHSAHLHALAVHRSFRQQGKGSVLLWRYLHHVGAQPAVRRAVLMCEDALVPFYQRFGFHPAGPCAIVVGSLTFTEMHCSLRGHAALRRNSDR

NCCCCc1c[nH]c2ccccc12 [7.2, indole-butylamine]
AANAT substrate: substrates | kcat: 4.2 ± 0.1 s⁻¹

NCCCc1c[nH]c2ccccc12 [7.1, indole-propylamine]
AANAT substrate: substrates | kcat: 5.5 ± 0.27 s⁻¹

— patent US5990094A, “Inhibitors of sorotonin N-acetyltransferase” (The Rockefeller University, priority 1998, dated 1999)
